{"source": "the supplement of paper PMC10338343", "note": "± gives the standard deviation. The list shows a part of the results, in another mix than the full data. The uncertainty is large for many entries.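 Also: 1 nM active piRISC with 0.1 nM target library at 33 °C single turnover.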", "data": [{"system": "MIWI (PIWIL1) piRISC loaded with piRNA #2 (30 nt)", "test": "pre-steady-state target cleavage rate (min^-1); MIWI and MILI are mouse PIWI proteins and EfPiwi is from a freshwater sponge; tags in brackets are library labels; higher = faster piRNA-guided slicing of the target", "conditions": "guide: piRNA #2 5'p-UUAGGUAACCCAGUAGAUCCAGAGGAAUUC; auxiliary factor: 500 nM mouse GTSF1", "outline": "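In this Cleave-'n-Seq assay, uncleaved targets were sequenced and normalised to depth and to weakly complementary targets. They came from a transcribed, DNA-blocked target RNA library […] mixed with 1 nM active affinity-purified piRISC carrying one synthetic guide, with or without 500 nM GTSF1 partner protein, in HEPES–potassium acetate buffer at 33 °C for 0–8 or 0–960 min. After three trials were pooled and k3 was capped at 0.0001 min^-1, the pre-steady-state cleavage rate was obtained from a burst-and-steady-state fit.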", "values": [{"sequence": "CUUAAGGAGACGAUCUACUGGGUUACCUA", "pre-steady-state target cleavage rate": "0.00209 ± 0.0031"}, {"sequence": "CUUAAGGAGAGAAUCUACUGGGUUACCUAA", "pre-steady-state target cleavage rate": "0.00332 ± 0.0043"}, {"sequence": "CUUAAGGAGACGAUCUACUGGGUUACCGUAA", "pre-steady-state target cleavage rate": "0.00254 ± 0.004"}, {"sequence": "CUUUUCCUCUGGAUCUACACCCAAUGGAUA [g13:g27:cont:t1A]", "pre-steady-state target cleavage rate": "0.000383 ± 0.014"}, {"sequence": "CUUAAGGAGUGGAUCUACUGGCUUACGUAA", "pre-steady-state target cleavage rate": "0.00371 ± 0.011"}, {"sequence": "CUUAAGGAGACCAACUACUGGGUUAGCUAA", "pre-steady-state target cleavage rate": "0.00124 ± 0.0084"}, {"sequence": "CAAUUCCUCUGGAUCUACUGCGGUUACCUAA", "pre-steady-state target cleavage rate": "0.00358 ± 0.0036"}, {"sequence": "CUUAAGGAGUGCAUCUACUGCGUUACCUAA", "pre-steady-state target cleavage rate": "0.00153 ± 0.0085"}, {"sequence": "CUUAAGGACAGCAUCUACUGGGUUACCUAA", "pre-steady-state target cleavage rate": "0.00648 ± 0.0035"}, {"sequence": "CUUAAGGAGACCUACUACUGGGUUCACCUAA", "pre-steady-state target cleavage rate": "0.00119 ± 0.008"}, {"sequence": "CAAUUCCUCUCGUUCUACUGGGUUACCUAA", "pre-steady-state target cleavage rate": "0.82 ± 0.071"}, {"sequence": "CUUAAGGAGACCUAGAUCAGGGUUACGUAA", "pre-steady-state target cleavage rate": "0.000668 ± 0.01"}, {"sequence": "CUUAAGGAGACGAUCUACUGGGUAACCUAA", "pre-steady-state target cleavage rate": "0.000263 ± 0.029"}, {"sequence": "CUUUUCCUCUGGAUCUACUGGUUACCUAA", "pre-steady-state target cleavage rate": "0.0817 ± 0.016"}, {"sequence": "CUUAAGGAGACCAUCUACUGGGUUAUCUAA", "pre-steady-state target cleavage rate": "0.00136 ± 0.0059"}, {"sequence": "CUUAAGGAGACCUAGAUCUGGGUUACCUA", "pre-steady-state target cleavage rate": "0.000601 ± 0.0065"}, {"sequence": "CUUAAGGAGACGAUCUUCUCGGUUACCUAA", "pre-steady-state target cleavage rate": "0.000872 ± 0.011"}, {"sequence": "CUAUUCCUCUGGAUCUACUGAGUUACCUAA", "pre-steady-state target cleavage rate": "0.823 ± 0.06"}, {"sequence": "CUUAAGGAGACCAUCUACUCGGUUACCUAA", "pre-steady-state target cleavage rate": "0.00138 ± 0.0047"}, {"sequence": "CUUAUCCUCUGGAUCUUCUGGGAUACCUAA", "pre-steady-state target cleavage rate": "0.144 ± 0.025"}, {"sequence": "CUUAAGGAGUGGAUCUACUGGGGUUACCUAA", "pre-steady-state target cleavage rate": "0.000179 ± 0.023"}, {"sequence": "CUUAAGGUCUGGAUCUAUCUGGGUUACCUAA", "pre-steady-state target cleavage rate": "0.000339 ± 0.02"}, {"sequence": "CUUAAGGAGAGGAUCAUACUGGGUUACCUAA", "pre-steady-state target cleavage rate": "0.000894 ± 0.012"}, {"sequence": "CUUAAGGAGUGGACUCUACUGGGUUACCUAA", "pre-steady-state target cleavage rate": "0.0088 ± 0.01"}, {"sequence": "CUUUUCCGUCUGGAUCUACUGGGUUACCUAA", "pre-steady-state target cleavage rate": "0.385 ± 0.039"}, {"sequence": "CUUUUCCUCUGGAUCUACUGUGUUACCUAA", "pre-steady-state target cleavage rate": "0.751 ± 0.048"}, {"sequence": "CUUAAGGAGACGAUCUACUGGGUUUACCUAA", "pre-steady-state target cleavage rate": "0.00248 ± 0.004"}, {"sequence": "CUUAAGGAGACCAAUCUACUGGGUUACCUAA", "pre-steady-state target cleavage rate": "0.00318 ± 0.0049"}, {"sequence": "GAAUUCCUCUGGAUCUACUGAGUUACCUAA", "pre-steady-state target cleavage rate": "0.67 ± 0.046"}, {"sequence": "CAAUUCCUCUGGUCUACUGGGUUACCUAA", "pre-steady-state target cleavage rate": "0.369 ± 0.088"}, {"sequence": "CUUAAGGAGACCUAGAUGUGGGUUAUCUAA", "pre-steady-state target cleavage rate": "0.000379 ± 0.019"}, {"sequence": "CUUUUCCUCUGGAUCUACUGGGUAUGGAUA [g8:g27:cont:t1A]", "pre-steady-state target cleavage rate": "0.00112 ± 0.012"}, {"sequence": "CUUAAGGACUGGAUCUACUGGCUUACCUUA", "pre-steady-state target cleavage rate": "0.00755 ± 0.014"}, {"sequence": "CUUAAGGUCUGGAUGUACUCGGUUACCUAA", "pre-steady-state target cleavage rate": "0.0154 ± 0.016"}, {"sequence": "CUUAUCCUCUCCAUCUACUGGGUUACCUAA", "pre-steady-state target cleavage rate": "0.422 ± 0.033"}, {"sequence": "CUUAAGGAGACGAUCUACUGGGUUACACUAA", "pre-steady-state target cleavage rate": "0.00084 ± 0.0082"}, {"sequence": "CUUAAGGACUGGAUCUACUGGGGUUACCUAA", "pre-steady-state target cleavage rate": "0.00127 ± 0.021"}, {"sequence": "CUUAAGGAGAGGAUCUUCUGGGUUUCCUAA", "pre-steady-state target cleavage rate": "0.000945 ± 0.011"}, {"sequence": "CUUAAGGAGACCUAGUCACUGGGUUACCUAA", "pre-steady-state target cleavage rate": "0.00112 ± 0.005"}, {"sequence": "CUUAAGGAGACGAUCUACUGGGUCACCUAA", "pre-steady-state target cleavage rate": "0.00314 ± 0.0036"}, {"sequence": "CUUAAGGAGACGAUCGACUGGGUUACCUAA", "pre-steady-state target cleavage rate": "0.000313 ± 0.034"}, {"sequence": "CUUAAGGAGACGAUCAAGUGGGUUACCUAA", "pre-steady-state target cleavage rate": "0.000239 ± 0.024"}, {"sequence": "CUUAAGGAGACGAGCUACUGGGUUACCUAA", "pre-steady-state target cleavage rate": "0.00114 ± 0.011"}, {"sequence": "CUUAUCCUCUCGAUCUACUGGGUUACCUUA", "pre-steady-state target cleavage rate": "0.436 ± 0.032"}, {"sequence": "CUUAAGGAGACCUACUACUGGGUUACCUAG [g2:g16:cont:t1G]", "pre-steady-state target cleavage rate": "0.0012 ± 0.01"}, {"sequence": "CUUAAGGAGACGAUCUACUGGCUUACGUAA", "pre-steady-state target cleavage rate": "0.000714 ± 0.011"}, {"sequence": "CAAUUCCUCUCGAUCUACUCGGUUACCUAA", "pre-steady-state target cleavage rate": "0.22 ± 0.022"}, {"sequence": "CUUAAGGAGACCUAGAUGACCGUUACCUAA", "pre-steady-state target cleavage rate": "0.00112 ± 0.0045"}, {"sequence": "CAAUACCUCUGGUUCUACUGGGUUACCUAA", "pre-steady-state target cleavage rate": "0.909 ± 0.066"}, {"sequence": "CUUAAGGAGUGGAUCAACUGGGUUUCCUAA", "pre-steady-state target cleavage rate": "0.00206 ± 0.0046"}, {"sequence": "CUUAAGGAGACCAUCUACUGGUGUUACCUAA", "pre-steady-state target cleavage rate": "0.000892 ± 0.0069"}, {"sequence": "CUUAACCUCUCGAUCUACUGGCUUACCUAA", "pre-steady-state target cleavage rate": "0.173 ± 0.016"}, {"sequence": "CUUAAGGAGAGGUUCUACAGGGUUACCUAA", "pre-steady-state target cleavage rate": "0.00256 ± 0.0048"}, {"sequence": "CUUAAGGAGAGGAUCUACUGGGUAACCUAA", "pre-steady-state target cleavage rate": "0.00292 ± 0.0063"}, {"sequence": "CUUAAGGAGACGAUCUUCUGGGUUACCAAA", "pre-steady-state target cleavage rate": "0.00107 ± 0.0038"}, {"sequence": "CUUAAGGAGAGGAUCUACUGGGAUACCUAA", "pre-steady-state target cleavage rate": "0.00288 ± 0.005"}, {"sequence": "CUUAAGGAGACCUACUACUGGGUUAGCAAA", "pre-steady-state target cleavage rate": "0.000246 ± 0.029"}, {"sequence": "CUUAAGGACUGGAUCUACUGGGUUAGGAAA", "pre-steady-state target cleavage rate": "0.000577 ± 0.026"}, {"sequence": "GAAUUCCUCUGGAACUACUGGGUUACCAAA", "pre-steady-state target cleavage rate": "0.233 ± 0.056"}, {"sequence": "CUUAAGGUCUGGAUCUACUCGGUUAGCUAA", "pre-steady-state target cleavage rate": "0.00108 ± 0.014"}, {"sequence": "CUUAAGGACUGGAUCUACUGGGAUAGCUAA", "pre-steady-state target cleavage rate": "0.00465 ± 0.0075"}, {"sequence": "CUUAAGGAGACCUAGAUGACGGUUACCAUA", "pre-steady-state target cleavage rate": "0.000119 ± 0.033"}, {"sequence": "CUUUUCCUCUGGUUCUACUGGGUUACCUAA", "pre-steady-state target cleavage rate": "0.621 ± 0.042"}, {"sequence": "CUUAAGGACUGGAUCUACUGGGUUAGCUUA", "pre-steady-state target cleavage rate": "0.00627 ± 0.013"}, {"sequence": "CUUAAGGAGACCUAGAACUGGGUUACCUA", "pre-steady-state target cleavage rate": "0.000158 ± 0.027"}, {"sequence": "CUUAAGGUCUGGAUCACUGGGUUACCUAA", "pre-steady-state target cleavage rate": "0.00175 ± 0.0085"}, {"sequence": "CUUAUCCUCUGGAUCUGACUGGGUUACCUAA", "pre-steady-state target cleavage rate": "0.00062 ± 0.014"}, {"sequence": "CUUAAGGAGAGGAACUACUGGGUUUCCUAA", "pre-steady-state target cleavage rate": "0.000432 ± 0.012"}, {"sequence": "CUUAAGGAGAGGAACUACUGGGUUACCUAA", "pre-steady-state target cleavage rate": "0.00349 ± 0.0053"}, {"sequence": "CUUAAGGAGUGGAUCUUCUGGGUUAGCUAA", "pre-steady-state target cleavage rate": "0.00109 ± 0.015"}, {"sequence": "CUUAAGGAGUGGAUCUACUGGGAUUACCUAA", "pre-steady-state target cleavage rate": "0.00195 ± 0.0057"}]}]}
